{"source": "paper PMC4015341", "target": "LUFS domain of LUH as N-LUC fusion (Arabidopsis thaliana)", "assay": "split reporter; split luciferase complementation in Arabidopsis protoplasts; 15 ug of each N-LUC and C-LUC fusion plasmid, 5 x 10^4 protoplasts, 16 h in the dark at room temperature; LUC relative to Renilla LUC", "note": "These are yes or no findings as the source states them, for the method shown. In cells and extracts the contact can be indirect. A result given as binding can be weak or reduced; the word gives no strength. Tags and fused reporters may be left off the sequences shown.", "data": [{"binder": "SLK1 as C-LUC fusion (protein, UniProt Q0WVM7 1-748) MNRTVVSGAVESSFSLTDAVGTEALNMQRSSGINNNMRIPTSPMSFSSNSVNIPGSLVLDGSAASMQHLPQQQQQQLLQQQTGQGSVPMRENNYSHVDKKPRLEVKQEDMLQQQILQQLIQRQDPTGRNPQMQALLQQQRLRQHQQMLQSMSPSQRLQLQQQQQLRQQLQQQGTQQIPPNVRPYEVGVCARKLMMYLYHLQQRPAENCITYWRKFVAEYFSPRAKQRLCLSQYESAGHHALGMFPQAAPDMWQCDLCGTKSGKGFEATFDVLARLIEIKFASGIIDELLYLDHPRENRFPNGLMMLEYRKAVQETVHEQFRVVREGHLRIIFSQDLKILSWEFCARRHEELLLRRLIAPQVNQLLQVAQKCQSTISESGSEGVSQQDLQSNSNMVLGAGRQLAKFMELQSLNDLGYPKRYIRTLQISEVVKSMKDLMNFTGEQKIGPIEGLKRLLEQTVTVKLQKQKMQEMEQFGNNGAINGPVQAQMVLTSGTMNGSTGNNTNNHHQIVGRGAMSGPAEGQMVISSGTVSGATANNNSNNHNQIVGRGAMNGSAQAAAALTNYQSMLMRQNAMNNPNSNTGKQEGFSSQNPTPNSNQSPSSSSQQRHNLVTGGFPNSPQMQQQQRTMNGPTNILPQNHPHQLQSPHSHGNTPEQQMLHQLLQEMSENGGSVQQQQAFSGQSGSNSNAERNTTASTSNISGGGRAPSRNNSFKAASNNNLHFSEDISITDHDFSEDGFFNNNDIYGGL", "values": [{"measurement": "binding", "result": "binds"}]}, {"binder": "SLK2 as C-LUC fusion (protein, UniProt Q94BP0 1-816) MASSTSGIFFQGDDESQSFINSHLTSSYGNSSNSAPGCGGPTGGYHNLSMVSGDMHNPVMMSVSTPGPSAGASSLVTDANSGLSGGGPHLQRSASINNESYMRLPASPMSFSSNNISISGSSVVDGSTVVQRHDPSVQLGGSSATSLPTSQTNQIPLSMARRASESFFQDPNNLTQARKKPRLDSKQDDALQQQILRQWLQRQDILQQQQQQQQQGQNPQFQILLQQQKLRQQQQYLQSLPPLQRVQLQQQQQVQQQQQLQQQHQQQQQQLQQQGMQMQLTGGPRPYENSVCARRLMQYLYHQRQRPSESSIVYWRKFVTEYFSPRAKKRWCLSHYDNVGHSALGVSPQAATDEWQCDLCGSKSGRGFEATFDVLPRLNEIKFASGVLDELLYLGVPSERRYGSGIMVLEYGKAVQESVYEHIRVVREGHLRIIFSQELKILSWEFCTRRHEELLPRRLVAPQVNQLLQVAEKCQSTIDQSGSDGIHQQDLQANSNMVMAAGRQLAKSLESHSLNDLGFSKRYVRCLQISEVVSSMKDMIDFCRDQKVGPIEALKSYPYRMKAGKPQMQEMEQLAAARGLPPDRNSLNKLMALRNSGINIPMNNMSGQGSLPGSAQAAAFALTNYQSMLMKQNHLNSDLNNTTIQQEPSRNRSASPSYQGTSPLLPGFVHSPSISGVSSHLSPQRQMPSSSYNGSTQQYHQQPPSCSSGNQTLEQQMIHQIWQQMANSNGGSGQQQQSLSGQNMMNCNTNMGRNRTDYVPAAAETPSTSNRFRGIKGLDQSQNLEGIISNTSLNFGNNGVFSNEVDESMGGYSWKS", "values": [{"measurement": "binding", "result": "binds"}]}]}
